This series deals with HeLa cells. The series can be described thus: Intracellular localization of dye (costaining with LysoTracker). The format is cell-based. Conditions: costaining with LysoTracker Green DND 26 (50 nM), Suc-LLVY-SiR600 2 μM, 2Me SiR600 50 μM.

The values that follow come from patent publication US20160102336A1, “FLUORESCENT PROBE FOR DETECTING ACTIVITY OF CALPAIN” (THE UNIVERSITY OF TOKYO, priority 2013, published 2016).

*1 amine or outer side, *2 acyl side, *3 side chain or, on linkers, in order; H or OH if unused. Where a SMILES comes first, the peptide text is derived from it. The star is where a group is joined. X1 = Cc1ccccc1C1=C2C=CC(=N)C=C2[Si](C)(C)c2cc(N*)ccc21; Suc = O=C(CCC(=O)[*:2])[*:1]

Turning to 2Me SiR600 [reference compound], the intracellular localization result is “accumulates in lysosomes in cells”.

On to `Cc1ccccc1C1=C2C=CC(=N)C=C2[Si](C)(C)c2cc(NC(=O)[C@H](Cc3ccc(O)cc3)NC(=O)[C@@H](NC(=O)[C@H](CC(C)C)NC(=O)[C@H](CC(C)C)NC(=O)CCC(=O)O)C(C)C)ccc21` [Suc-LLVY-SiR600] (Suc-LLVY-X1), for which the intracellular localization result was “shows intracellular localization in similar fashion to the lysosomal localization dye LysoTracker”.
